Laboratory results published in PMC4727897.
No constants are given. Whether binding was seen depends on the method and setting. For some of these results: Binding seen in cells or lysates may run through a third protein. Some entries that bind do so weakly or less than the wild type. For some of these results: Sequences can lack the tags named with a protein.

Chains of the proteins cited; added tags and fusions are not shown. Lines headed by an entry give the natural chain unless they say otherwise; changes in a name come on top.
UniProt P07355: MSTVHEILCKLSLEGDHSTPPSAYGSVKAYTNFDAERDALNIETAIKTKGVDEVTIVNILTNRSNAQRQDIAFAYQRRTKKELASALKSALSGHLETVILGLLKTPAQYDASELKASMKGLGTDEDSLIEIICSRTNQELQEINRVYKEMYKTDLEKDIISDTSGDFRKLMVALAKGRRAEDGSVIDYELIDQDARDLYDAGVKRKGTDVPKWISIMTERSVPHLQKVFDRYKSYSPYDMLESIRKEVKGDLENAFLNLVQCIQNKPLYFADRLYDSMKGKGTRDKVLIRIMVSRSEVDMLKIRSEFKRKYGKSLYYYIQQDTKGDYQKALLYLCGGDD

Assays:
[1] = molecular target: T1, GST-p37 fusion protein (p37, major membrane protein of M. hyorhinis) (Mycoplasma hyorhinis) (UniProt P15363); experiment: ELISA; solid-phase binding assay: GST-p37 or GST coated on 96-well plates (carbonate buffer pH 9.6, 4°C overnight), biotin-A2PP at indicated concentrations added at RT for 2 hr, streptavidin-HRP, OD490; both purified
T1 sequence: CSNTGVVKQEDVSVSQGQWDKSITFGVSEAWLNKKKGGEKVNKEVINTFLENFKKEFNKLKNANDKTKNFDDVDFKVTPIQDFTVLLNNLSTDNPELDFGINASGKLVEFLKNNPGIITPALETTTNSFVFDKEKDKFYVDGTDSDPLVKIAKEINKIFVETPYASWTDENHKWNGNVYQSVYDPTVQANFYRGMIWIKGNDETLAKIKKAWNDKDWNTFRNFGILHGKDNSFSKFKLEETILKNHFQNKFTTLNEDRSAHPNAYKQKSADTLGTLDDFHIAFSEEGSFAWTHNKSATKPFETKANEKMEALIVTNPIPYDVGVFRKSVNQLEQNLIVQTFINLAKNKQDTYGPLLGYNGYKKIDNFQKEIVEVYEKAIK

[2] = molecular target: T2, p37 (major membrane protein of M. hyorhinis) (Mycoplasma hyorhinis) (UniProt P15363); experiment: co-IP; competition in the same co-IP: 20 μM synthetic A2PP added to lysates of M. hyorhinis infected BGC823 or AGS cells precipitated with anti-ANXA2; only the binder purified
T2 sequence: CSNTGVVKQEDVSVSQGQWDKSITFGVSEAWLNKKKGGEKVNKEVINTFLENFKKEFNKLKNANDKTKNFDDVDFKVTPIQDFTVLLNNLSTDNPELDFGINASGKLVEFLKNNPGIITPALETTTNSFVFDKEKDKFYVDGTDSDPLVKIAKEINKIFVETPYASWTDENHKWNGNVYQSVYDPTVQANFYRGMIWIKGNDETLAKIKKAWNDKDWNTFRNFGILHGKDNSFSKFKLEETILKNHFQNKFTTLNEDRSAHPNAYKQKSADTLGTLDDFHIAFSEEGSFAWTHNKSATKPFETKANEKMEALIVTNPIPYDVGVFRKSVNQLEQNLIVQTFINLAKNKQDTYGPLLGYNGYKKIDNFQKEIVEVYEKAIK

[3] = molecular target: biotin-conjugated A2PP (N-terminal polypeptide of Annexin A2, 1st to 30th aa) (UniProt P07355); experiment: pull-down; 100 ng GST-p37 or GST with 20 μM biotin-A2PP and streptavidin beads, 50 mM Tris-HCl pH 8.0, 150 mM NaCl, 0.5% NP-40, 0.5 mM DTT, 4°C overnight; Western blotting; both purified
[4] = molecular target: Annexin A2 (ANXA2) (human (endogenous in BGC823 and AGS)) (UniProt P07355); experiment: co-IP; lysates (500 μg) of M. hyorhinis infected BGC823 or AGS cells, 1 μg anti-ANXA2 plus protein G sepharose, 4°C overnight, with 20 μM A2PP or ConP; pre-immune IgG as control; Western blotting

biotin-conjugated A2PP (N-terminal polypeptide of Annexin A2, 1st to 30th aa) (from UniProt P07355 1-30)
binding [1]: binds

A2PP (N-terminal polypeptide of Annexin A2, 1st to 30th aa) (from UniProt P07355 1-30)
binding [2]: binds

B1: GST-p37 fusion protein (p37, major membrane protein of M. hyorhinis) (protein, UniProt P15363 24-403)
chain: CSNTGVVKQEDVSVSQGQWDKSITFGVSEAWLNKKKGGEKVNKEVINTFLENFKKEFNKLKNANDKTKNFDDVDFKVTPIQDFTVLLNNLSTDNPELDFGINASGKLVEFLKNNPGIITPALETTTNSFVFDKEKDKFYVDGTDSDPLVKIAKEINKIFVETPYASWTDENHKWNGNVYQSVYDPTVQANFYRGMIWIKGNDETLAKIKKAWNDKDWNTFRNFGILHGKDNSFSKFKLEETILKNHFQNKFTTLNEDRSAHPNAYKQKSADTLGTLDDFHIAFSEEGSFAWTHNKSATKPFETKANEKMEALIVTNPIPYDVGVFRKSVNQLEQNLIVQTFINLAKNKQDTYGPLLGYNGYKKIDNFQKEIVEVYEKAIK
binding [3]: binds

B2: p37 (major membrane protein of M. hyorhinis) (protein, UniProt P15363 24-403)
chain: CSNTGVVKQEDVSVSQGQWDKSITFGVSEAWLNKKKGGEKVNKEVINTFLENFKKEFNKLKNANDKTKNFDDVDFKVTPIQDFTVLLNNLSTDNPELDFGINASGKLVEFLKNNPGIITPALETTTNSFVFDKEKDKFYVDGTDSDPLVKIAKEINKIFVETPYASWTDENHKWNGNVYQSVYDPTVQANFYRGMIWIKGNDETLAKIKKAWNDKDWNTFRNFGILHGKDNSFSKFKLEETILKNHFQNKFTTLNEDRSAHPNAYKQKSADTLGTLDDFHIAFSEEGSFAWTHNKSATKPFETKANEKMEALIVTNPIPYDVGVFRKSVNQLEQNLIVQTFINLAKNKQDTYGPLLGYNGYKKIDNFQKEIVEVYEKAIK
binding [4]: binds
